Data on 42 targets can be found in the supplement of paper PMC12067093, “Discovery and optimisation of a covalent ligand for TRIM25 and its application to targeted protein ubiquitination” (Chemical Science, 2025).

The chains behind the UniProt entries cited, without tags or fusion partners. Where a name states a change or a piece, a line headed by the entry shows the natural chain unless it says otherwise.
UniProt Q96ME1: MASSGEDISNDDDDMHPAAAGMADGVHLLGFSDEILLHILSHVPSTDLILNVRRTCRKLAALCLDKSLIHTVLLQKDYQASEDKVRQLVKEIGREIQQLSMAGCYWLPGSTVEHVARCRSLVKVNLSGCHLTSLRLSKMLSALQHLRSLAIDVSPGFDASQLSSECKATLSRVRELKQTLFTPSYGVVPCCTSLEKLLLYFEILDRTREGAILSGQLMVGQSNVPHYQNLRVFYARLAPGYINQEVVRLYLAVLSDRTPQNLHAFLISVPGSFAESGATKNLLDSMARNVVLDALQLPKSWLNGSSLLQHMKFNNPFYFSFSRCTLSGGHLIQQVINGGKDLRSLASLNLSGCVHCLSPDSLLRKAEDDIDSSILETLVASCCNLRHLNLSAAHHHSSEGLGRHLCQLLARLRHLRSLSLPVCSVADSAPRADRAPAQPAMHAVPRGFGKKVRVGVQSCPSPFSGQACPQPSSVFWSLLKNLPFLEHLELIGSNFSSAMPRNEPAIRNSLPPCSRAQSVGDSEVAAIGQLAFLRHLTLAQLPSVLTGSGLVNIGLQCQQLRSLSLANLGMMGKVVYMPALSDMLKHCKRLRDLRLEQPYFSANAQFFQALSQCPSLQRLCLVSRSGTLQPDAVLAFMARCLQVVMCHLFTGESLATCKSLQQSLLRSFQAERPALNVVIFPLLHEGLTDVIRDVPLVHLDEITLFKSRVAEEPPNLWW
UniProt Q5VWN6: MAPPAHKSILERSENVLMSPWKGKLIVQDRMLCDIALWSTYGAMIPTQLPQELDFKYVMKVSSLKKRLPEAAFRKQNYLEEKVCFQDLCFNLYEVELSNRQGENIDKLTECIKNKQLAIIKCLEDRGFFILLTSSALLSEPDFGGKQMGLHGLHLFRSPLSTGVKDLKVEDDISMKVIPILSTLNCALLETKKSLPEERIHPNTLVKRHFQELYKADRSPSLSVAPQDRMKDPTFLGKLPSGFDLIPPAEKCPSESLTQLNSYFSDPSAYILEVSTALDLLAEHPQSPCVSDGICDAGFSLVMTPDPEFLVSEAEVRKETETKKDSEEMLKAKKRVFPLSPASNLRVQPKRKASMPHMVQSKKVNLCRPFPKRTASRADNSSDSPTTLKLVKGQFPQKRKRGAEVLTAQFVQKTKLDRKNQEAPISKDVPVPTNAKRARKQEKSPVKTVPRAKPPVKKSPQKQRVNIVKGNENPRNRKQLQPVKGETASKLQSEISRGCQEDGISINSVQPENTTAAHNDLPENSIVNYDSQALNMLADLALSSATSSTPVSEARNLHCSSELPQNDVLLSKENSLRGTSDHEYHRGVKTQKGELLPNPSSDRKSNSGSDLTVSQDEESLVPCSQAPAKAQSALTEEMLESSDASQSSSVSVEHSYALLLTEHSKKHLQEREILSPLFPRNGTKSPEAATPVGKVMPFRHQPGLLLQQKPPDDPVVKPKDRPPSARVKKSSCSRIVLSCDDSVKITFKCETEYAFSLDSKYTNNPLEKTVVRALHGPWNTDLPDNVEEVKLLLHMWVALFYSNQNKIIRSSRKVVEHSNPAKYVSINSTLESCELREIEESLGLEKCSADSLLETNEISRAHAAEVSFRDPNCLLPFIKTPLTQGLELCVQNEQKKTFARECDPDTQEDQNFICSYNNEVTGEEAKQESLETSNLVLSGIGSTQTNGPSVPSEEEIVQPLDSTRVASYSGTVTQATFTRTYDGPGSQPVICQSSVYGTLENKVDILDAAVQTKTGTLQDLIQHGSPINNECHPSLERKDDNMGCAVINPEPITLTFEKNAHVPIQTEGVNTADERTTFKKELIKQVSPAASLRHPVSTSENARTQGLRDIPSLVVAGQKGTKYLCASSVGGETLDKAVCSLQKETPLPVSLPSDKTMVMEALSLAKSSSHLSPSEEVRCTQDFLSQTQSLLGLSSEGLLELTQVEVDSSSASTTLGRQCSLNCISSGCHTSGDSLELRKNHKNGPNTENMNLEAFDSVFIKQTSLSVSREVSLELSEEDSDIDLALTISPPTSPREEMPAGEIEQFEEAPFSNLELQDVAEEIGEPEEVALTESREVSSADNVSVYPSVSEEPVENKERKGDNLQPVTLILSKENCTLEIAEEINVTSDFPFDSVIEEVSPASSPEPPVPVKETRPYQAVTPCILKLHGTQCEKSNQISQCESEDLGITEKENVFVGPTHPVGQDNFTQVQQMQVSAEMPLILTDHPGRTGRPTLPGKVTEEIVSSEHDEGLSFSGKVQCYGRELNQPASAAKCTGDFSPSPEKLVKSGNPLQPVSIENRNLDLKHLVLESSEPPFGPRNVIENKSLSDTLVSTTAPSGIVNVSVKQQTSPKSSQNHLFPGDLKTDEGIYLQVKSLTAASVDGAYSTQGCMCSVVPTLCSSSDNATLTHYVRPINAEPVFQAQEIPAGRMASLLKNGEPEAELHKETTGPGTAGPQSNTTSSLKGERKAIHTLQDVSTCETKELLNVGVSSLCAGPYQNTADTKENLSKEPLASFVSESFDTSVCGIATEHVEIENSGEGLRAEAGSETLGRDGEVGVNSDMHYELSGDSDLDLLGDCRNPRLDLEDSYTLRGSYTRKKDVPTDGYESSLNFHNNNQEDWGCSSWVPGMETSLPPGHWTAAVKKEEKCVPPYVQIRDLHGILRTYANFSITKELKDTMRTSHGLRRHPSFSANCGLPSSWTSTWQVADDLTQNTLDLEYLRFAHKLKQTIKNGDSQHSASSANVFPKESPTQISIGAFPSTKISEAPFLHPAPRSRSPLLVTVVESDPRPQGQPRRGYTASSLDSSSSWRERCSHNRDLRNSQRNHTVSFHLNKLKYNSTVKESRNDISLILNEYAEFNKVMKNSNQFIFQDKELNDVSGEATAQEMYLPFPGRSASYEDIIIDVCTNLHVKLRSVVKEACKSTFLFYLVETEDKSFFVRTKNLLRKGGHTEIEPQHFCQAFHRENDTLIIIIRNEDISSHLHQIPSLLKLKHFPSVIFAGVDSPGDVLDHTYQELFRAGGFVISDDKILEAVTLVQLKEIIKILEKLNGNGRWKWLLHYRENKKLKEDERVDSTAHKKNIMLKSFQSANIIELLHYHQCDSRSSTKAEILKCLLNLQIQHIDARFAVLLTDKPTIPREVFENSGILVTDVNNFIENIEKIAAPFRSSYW
UniProt Q9NUQ9: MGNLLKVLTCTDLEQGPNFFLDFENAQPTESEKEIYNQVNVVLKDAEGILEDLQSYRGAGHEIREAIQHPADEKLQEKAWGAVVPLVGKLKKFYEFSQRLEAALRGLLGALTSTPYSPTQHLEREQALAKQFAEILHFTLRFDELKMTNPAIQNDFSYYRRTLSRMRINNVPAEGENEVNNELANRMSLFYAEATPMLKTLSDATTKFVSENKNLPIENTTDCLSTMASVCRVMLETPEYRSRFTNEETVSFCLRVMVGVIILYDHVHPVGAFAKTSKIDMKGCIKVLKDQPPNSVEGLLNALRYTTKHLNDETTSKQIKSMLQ
UniProt Q9Y324: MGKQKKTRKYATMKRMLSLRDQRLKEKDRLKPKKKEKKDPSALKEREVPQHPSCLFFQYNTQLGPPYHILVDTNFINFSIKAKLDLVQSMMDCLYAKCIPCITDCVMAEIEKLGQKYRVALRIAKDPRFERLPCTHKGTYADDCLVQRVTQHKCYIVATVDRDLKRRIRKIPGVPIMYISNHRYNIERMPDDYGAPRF
UniProt Q9NVI1: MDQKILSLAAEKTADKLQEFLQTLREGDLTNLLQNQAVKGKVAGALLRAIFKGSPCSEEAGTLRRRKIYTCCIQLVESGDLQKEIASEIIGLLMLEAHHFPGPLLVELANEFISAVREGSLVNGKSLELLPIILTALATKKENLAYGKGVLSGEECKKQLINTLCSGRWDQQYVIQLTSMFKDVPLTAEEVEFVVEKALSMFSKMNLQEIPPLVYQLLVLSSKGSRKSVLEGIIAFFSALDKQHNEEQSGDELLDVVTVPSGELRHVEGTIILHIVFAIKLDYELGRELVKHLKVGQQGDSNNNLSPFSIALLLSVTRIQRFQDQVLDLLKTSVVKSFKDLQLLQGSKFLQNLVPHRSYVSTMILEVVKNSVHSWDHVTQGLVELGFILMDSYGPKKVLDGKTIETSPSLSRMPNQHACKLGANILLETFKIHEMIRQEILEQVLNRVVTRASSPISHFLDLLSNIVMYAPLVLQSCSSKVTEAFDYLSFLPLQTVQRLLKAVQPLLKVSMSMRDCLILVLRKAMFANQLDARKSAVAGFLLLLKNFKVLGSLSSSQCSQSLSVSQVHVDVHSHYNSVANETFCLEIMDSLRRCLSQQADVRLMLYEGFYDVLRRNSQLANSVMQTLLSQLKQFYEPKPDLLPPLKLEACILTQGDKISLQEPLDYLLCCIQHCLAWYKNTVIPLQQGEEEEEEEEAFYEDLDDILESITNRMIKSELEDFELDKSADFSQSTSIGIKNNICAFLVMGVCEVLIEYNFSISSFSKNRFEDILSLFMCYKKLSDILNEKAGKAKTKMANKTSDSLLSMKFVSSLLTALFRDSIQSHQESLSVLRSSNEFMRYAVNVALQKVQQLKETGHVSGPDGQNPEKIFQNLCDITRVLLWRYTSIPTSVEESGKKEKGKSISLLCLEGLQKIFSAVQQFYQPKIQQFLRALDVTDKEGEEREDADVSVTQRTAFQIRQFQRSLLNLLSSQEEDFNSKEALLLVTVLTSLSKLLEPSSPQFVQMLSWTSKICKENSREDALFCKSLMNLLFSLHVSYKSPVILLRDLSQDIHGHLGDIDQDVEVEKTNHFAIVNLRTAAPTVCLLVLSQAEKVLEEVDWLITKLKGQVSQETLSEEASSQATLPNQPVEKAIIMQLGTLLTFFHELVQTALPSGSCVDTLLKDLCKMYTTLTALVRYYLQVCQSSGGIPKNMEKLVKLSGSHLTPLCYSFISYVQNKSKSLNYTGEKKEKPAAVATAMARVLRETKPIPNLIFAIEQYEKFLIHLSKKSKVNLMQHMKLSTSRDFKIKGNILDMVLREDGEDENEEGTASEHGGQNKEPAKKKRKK
UniProt Q9BSK4: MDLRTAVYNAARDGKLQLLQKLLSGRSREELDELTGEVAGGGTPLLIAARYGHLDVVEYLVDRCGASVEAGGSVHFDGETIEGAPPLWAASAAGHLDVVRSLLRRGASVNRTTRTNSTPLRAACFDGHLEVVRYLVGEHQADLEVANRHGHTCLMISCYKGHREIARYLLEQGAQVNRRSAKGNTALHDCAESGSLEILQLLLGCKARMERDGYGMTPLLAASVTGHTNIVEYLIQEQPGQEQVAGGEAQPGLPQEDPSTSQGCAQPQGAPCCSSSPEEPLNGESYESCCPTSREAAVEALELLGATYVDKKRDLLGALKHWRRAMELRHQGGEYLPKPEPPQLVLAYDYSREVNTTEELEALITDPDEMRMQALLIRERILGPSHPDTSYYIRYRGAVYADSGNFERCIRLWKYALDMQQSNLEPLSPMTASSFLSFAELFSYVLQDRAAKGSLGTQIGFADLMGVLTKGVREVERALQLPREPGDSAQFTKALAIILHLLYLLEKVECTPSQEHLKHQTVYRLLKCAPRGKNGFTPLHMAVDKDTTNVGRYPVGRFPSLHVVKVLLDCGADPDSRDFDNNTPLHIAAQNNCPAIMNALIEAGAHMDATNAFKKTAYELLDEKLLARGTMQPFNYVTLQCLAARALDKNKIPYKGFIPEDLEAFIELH
UniProt Q52LJ0: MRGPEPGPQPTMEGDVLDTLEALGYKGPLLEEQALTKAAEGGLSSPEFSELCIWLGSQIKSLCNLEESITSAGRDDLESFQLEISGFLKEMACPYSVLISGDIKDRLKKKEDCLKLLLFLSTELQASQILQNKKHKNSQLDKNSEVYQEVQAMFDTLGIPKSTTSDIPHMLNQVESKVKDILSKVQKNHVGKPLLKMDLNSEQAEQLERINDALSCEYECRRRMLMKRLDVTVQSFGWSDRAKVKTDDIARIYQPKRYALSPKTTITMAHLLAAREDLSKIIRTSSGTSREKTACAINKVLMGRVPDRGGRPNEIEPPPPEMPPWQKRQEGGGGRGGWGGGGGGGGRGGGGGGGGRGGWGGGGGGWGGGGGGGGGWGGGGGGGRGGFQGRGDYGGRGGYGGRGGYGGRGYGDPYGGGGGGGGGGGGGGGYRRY
UniProt P55899: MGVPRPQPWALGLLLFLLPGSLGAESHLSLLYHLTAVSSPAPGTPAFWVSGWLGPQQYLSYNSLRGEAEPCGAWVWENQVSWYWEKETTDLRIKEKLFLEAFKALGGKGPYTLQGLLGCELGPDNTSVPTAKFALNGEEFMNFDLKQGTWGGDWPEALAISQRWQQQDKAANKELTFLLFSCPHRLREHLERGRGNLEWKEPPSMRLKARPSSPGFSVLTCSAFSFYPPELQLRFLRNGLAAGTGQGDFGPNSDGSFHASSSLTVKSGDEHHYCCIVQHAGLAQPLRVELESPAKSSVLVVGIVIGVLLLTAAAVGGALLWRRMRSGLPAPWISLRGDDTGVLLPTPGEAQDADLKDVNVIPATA

Compound in this test: CC1Cc2ccccc2N1C(=O)C1CCCN(C1)C(=O)CCl (mixture of isomers) [TRIM25 ligand 11 (diastereomer mixture)]
The test is described as follows: probe-labelled cysteine peptide fold change vs DMSO (competition) (log2 fold change); higher = less target engagement (more negative = stronger competition). Particulars: THP-1, incubation time: 4 h.

This is one part of the list.
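Also: competitive chemoproteomic profiling in live THP-1 cells with an iodoacetamide desthiobiotin (IA-DTB) probe, comparing probe-labelled peptide intensities in compound-treated cells against DMSO-treated controls.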

Regarding “FASN_P49327_1558_HAQPTCPGAQLCTVYYASLNFRDIMLATGK (UniProt P49327)”, the “probe-labelled cysteine peptide fold change” value (10 µM) was -0.313 and the “probe-labelled cysteine peptide fold change” value (50 µM) is -0.182.
Regarding “FBXL18_Q96ME1_383_KAEDDIDSSILETLVASCCNLR (UniProt Q96ME1)”, the “probe-labelled cysteine peptide fold change” value by setting is: (10 µM) -0.222; (50 µM) -0.0106.
As for “FAR2_Q96K12_170_HIDEVIYPCPVEPK (UniProt Q96K12)”, the “probe-labelled cysteine peptide fold change” value was 0.0704 (10 µM) and 0.0219 (50 µM).
For “FASN_P49327_1403_SFYGSTLFLCR (UniProt P49327)” the same measures were -0.00625 and 0.334.
Taken in the same sequence, the figures for “FAM208B_Q5VWN6_186_VIPILSTLNCALLETK (UniProt Q5VWN6)” were 0.18 and 0.0319.
Regarding “FANCD2_Q9BXW9_117_NCLLSCER (UniProt Q9BXW9)”, the “probe-labelled cysteine peptide fold change” value runs as follows: (10 µM) 0.0471; (50 µM) 0.0974.
As to “FBXO30_Q8TB52_10_MEEELQHSHCVNCVSR (UniProt Q8TB52)”, the “probe-labelled cysteine peptide fold change” value by setting is: (10 µM) -0.0797; (50 µM) -0.251.
As for “FAM49B_Q9NUQ9_223_NLPIENTTDCLSTMASVCR (UniProt Q9NUQ9)”, the “probe-labelled cysteine peptide fold change” value reads like this: (10 µM) -0.148; (50 µM) -0.054.
Turning to “FARSB_Q9NSD9_76_YDLLCLEGLVR (UniProt Q9NSD9)”, the “probe-labelled cysteine peptide fold change” value (10 µM) was found to be 0.226 and the “probe-labelled cysteine peptide fold change” value (50 µM) was 0.113.
Regarding “FAM208A_Q9UK61_149_ACLVHNELLEK (UniProt Q9UK61)”, the “probe-labelled cysteine peptide fold change” value is -0.217 (10 µM) and -0.415 (50 µM).
“FCF1_Q9Y324_93_LDLVQSMMDCLYAK (UniProt Q9Y324)”: the “probe-labelled cysteine peptide fold change” value (10 µM) is 0.136 and the “probe-labelled cysteine peptide fold change” value (50 µM) amounted to 0.138.
For “FANCI_Q9NVI1_156_GVLSGEECK (UniProt Q9NVI1)” the same measures were 0.141 and 0.0874.
In the case of “FBN2_P35556_2453_DIDECK (UniProt P35556)”, the “probe-labelled cysteine peptide fold change” value is -0.0175 (10 µM) and 0.168 (50 µM).
With “FBN2_P35556_941_CELDTACPR (UniProt P35556)”, the “probe-labelled cysteine peptide fold change” value (10 µM) worked out at 0.213 and the “probe-labelled cysteine peptide fold change” value (50 µM) is 0.26.
On to “FASN_P49327_2010_EACPELDYFVVFSSVSCGR (UniProt P49327)”, for which the “probe-labelled cysteine peptide fold change” value (10 µM) was -0.103 and the “probe-labelled cysteine peptide fold change” value (50 µM) stood at 0.0474.
“FANCB_Q8NB91_543_LSTNPFPAPYLMPCEIGLEAK (UniProt Q8NB91)”: the “probe-labelled cysteine peptide fold change” value runs as follows: (10 µM) -0.275; (50 µM) -0.23.
Consider “FAM126A_Q9BYI3_401_ETTGESCK (UniProt Q9BYI3)”, for which the “probe-labelled cysteine peptide fold change” value by setting is: (10 µM) -0.207; (50 µM) -0.348.
“FAM91A1_Q658Y4_653_NRVDLQHLCGYVTMLNASSQLADR (UniProt Q658Y4)”: the “probe-labelled cysteine peptide fold change” value is, setting by setting: (10 µM) -0.111; (50 µM) -0.0465.
Consider “FECH_P22830_196_AIAFTQYPQYSCSTTGSSLNAIYR (UniProt P22830)”, for which the “probe-labelled cysteine peptide fold change” value reads like this: (10 µM) 0.177; (50 µM) -0.132.
Taken in the same sequence, the figures for “FBXL6_Q8N531_439_WCHTLR (UniProt Q8N531)” were -0.0599 and -0.0919.
Regarding “FAM193B_Q96PV7_766_VGSCAEAGEGSR (UniProt Q96PV7)”, the “probe-labelled cysteine peptide fold change” value (10 µM) is 0.0331 and the “probe-labelled cysteine peptide fold change” value (50 µM) is -0.0522.
For “FAM208B_Q5VWN6_847_CSADSLLETNEISR (UniProt Q5VWN6)”, the “probe-labelled cysteine peptide fold change” value (10 µM) was -0.156 and the “probe-labelled cysteine peptide fold change” value (50 µM) was -0.0525.
Taken in the same sequence, the figures for “FEM1A_Q9BSK4_190_GNTALHDCAESGSLEILQLLLGCK (UniProt Q9BSK4)” were 0.0659 and -0.104.
For the target “FERMT1_Q9BQL6_423_GCEVVPDVNVAGR (UniProt Q9BQL6)”, the “probe-labelled cysteine peptide fold change” value by setting is: (10 µM) -0.029; (50 µM) -0.106.
In the case of “FDX2_Q6P4F2_154_LGCQIVLTPELEGAEFTLPK (UniProt Q6P4F2)”, the “probe-labelled cysteine peptide fold change” value was -0.122 (10 µM) and -0.364 (50 µM).
Take “FBLN1_P23142_494_RGYQLSDVDGVTCEDIDECALPTGGHICSYR (UniProt P23142)”: the “probe-labelled cysteine peptide fold change” value (10 µM) was determined as 0.372 and the “probe-labelled cysteine peptide fold change” value (50 µM) was determined as 0.293.
Take “FASN_P49327_1471_CVLLSNLSSTSHVPEVDPGSAELQK (UniProt P49327)”: the “probe-labelled cysteine peptide fold change” value amounted to 0.0358 (10 µM) and 0.00309 (50 µM).
Consider “FAM98B_Q52LJ0_93_EMACPYSVLISGDIK (UniProt Q52LJ0)”, for which the “probe-labelled cysteine peptide fold change” value runs as follows: (10 µM) 0.0701; (50 µM) 0.0561.
As for “FBXO5_Q9UKT4_95_LSCIGSPIVSPR (UniProt Q9UKT4)”, the “probe-labelled cysteine peptide fold change” value is -0.0925 (10 µM) and -0.0984 (50 µM).
Taken in the same sequence, the figures for “FBN2_P35556_1052_EYETLCPR (UniProt P35556)” were 0.0554 and 0.365.
Turning to “FASN_P49327_1227_ACLDTAVENMPSLK (UniProt P49327)”, the “probe-labelled cysteine peptide fold change” value reads like this: (10 µM) -0.0983; (50 µM) -0.0704.
Take “FARP2_O94887_155_LTCADTTAALLTSHLLQSEIGDYDETLDREHLK (UniProt O94887)”: the “probe-labelled cysteine peptide fold change” value is, setting by setting: (10 µM) 0.112; (50 µM) 0.151.
As to “FBL_P22087_268_ANCIDSTASAEAVFASEVK (UniProt P22087)”, the “probe-labelled cysteine peptide fold change” value is -0.0913 (10 µM) and 0.287 (50 µM).
In the case of “FAM76B_Q5HYJ3_60_CAQNVK (UniProt Q5HYJ3)”, the “probe-labelled cysteine peptide fold change” value is, setting by setting: (10 µM) -0.00343; (50 µM) 0.104.
On to “FEM1A_Q9BSK4_124_AACFDGHLEVVR (UniProt Q9BSK4)”, for which the “probe-labelled cysteine peptide fold change” value (10 µM) was 0.0873 and the “probe-labelled cysteine peptide fold change” value (50 µM) was 0.0865.
Turning to “FANCI_Q9NVI1_650_LEACILTQGDK (UniProt Q9NVI1)”, the “probe-labelled cysteine peptide fold change” value (10 µM) amounted to 0.264 and the “probe-labelled cysteine peptide fold change” value (50 µM) was determined as 0.0585.
Taken in the same sequence, the figures for “FASN_P49327_1558_HAQPTCPGAQLCTVYYASLNFR (UniProt P49327)” were -0.0325 and -0.235.
Taken in the same sequence, the figures for “FASN_P49327_1141_AALQEELQLCK (UniProt P49327)” were 0.0967 and -0.02.
For “FBXW11_Q9UKB1_100_MCHYQHGHINSYLK (UniProt Q9UKB1)”, the “probe-labelled cysteine peptide fold change” value (10 µM) was found to be 0.0217 and the “probe-labelled cysteine peptide fold change” value (50 µM) was 0.0175.
Take “FASN_P49327_634_CPPGVVPACHNSK (UniProt P49327)”: the “probe-labelled cysteine peptide fold change” value runs as follows: (10 µM) 0.28; (50 µM) -0.246.
For “FCGRT_P55899_182_ELTFLLFSCPHR (UniProt P55899)” the same measures were 0.0117 and 0.0477.
With “FAM98B_Q52LJ0_295_TACAINK (UniProt Q52LJ0)”, the “probe-labelled cysteine peptide fold change” value is 0.0196 (10 µM) and -0.162 (50 µM).
